Here are results for 28 compounds from PubChem BioAssay AID1458 (National Center for Advancing Translational Sciences (NCATS), 2008).

Hit rate of the full screen: of about 210,000 compounds, about 5,900 (2.8%) were called active. Roughly 5% stayed inconclusive and do not appear here. Calls come from the whole dose curve; as a rule, active = well fitted activation curve with a large enough effect; inconclusive = small, poorly fitted or top-dose-only effect; inactive = no such curve, though single readings can be large or run the other way. This is a selection; strong and weak results do not stand in their true shares. The source gives no active or inactive call for entries shown without one.
Potency is the fitted concentration of half-maximal effect.

This test is described as follows: qHTS Assay for Enhancers of SMN2 Splice Variant Expression. For activity change, positive = activation: % of control where 0% means no effect. Note: nearly all actives have a fitted effect of over 55% in size. The conditions noted are these: HEK293 SMN2-luciferase splicing reporter, luminescence, 30-36 h; activity change, positive = activation: at 46.1 µM (top of the series) unless noted. A digest of the protocol:
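HEK293 cells carry an SMN2 […]–luciferase reporter in which exon 7 inclusion puts luciferase in frame. Cells were plated 10-12 h before compound addition, then incubated 30-36 h at 37C. ONE-Glo luminescence was read; sodium butyrate at 4.5 mM final served as control.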
On to `COc1ccc(NC(=O)/C(C#N)=C/c2c(C)nn(-c3ccc(F)cc3)c2Cl)cc1OC`, for which the activity change, positive = activation worked out at 24.7%.

As for `Cc1nc2ccc(C(C(F)(F)F)(C(F)(F)F)C(F)(F)F)cc2[nH]1`, the activity change, positive = activation turned out to be 39.1%.

For the compound `Cc1ccc(-c2nc(-c3ccccn3)no2)cc1Cl`, the activity change, positive = activation is -41.5%.

In the case of `Cc1ccc(-n2c(-c3ccccc3)c[n+]3c2CCC3)cc1`, the “activity change, positive = activation” value is inactive: -32.1%.

Take `O=C(N/C(=C\c1ccc(Cl)cc1)C(=O)N1CCOCC1)c1ccc([N+](=O)[O-])cc1`: the activity change, positive = activation is -13.3%.

On to `COc1cc(Nc2nc(-c3ccc(OC)c(OC)c3)nc3ccccc23)cc(OC)c1`, for which the “activity change, positive = activation” value is inactive: -30%.

Take `COc1ccc(CCNC(=O)C2CCCN(Cc3nc(-c4cccc(Cl)c4)oc3C)C2)cc1OC` (stereo not drawn): the activity change, positive = activation is -48.9%.

With `CCc1ccc(-c2ccc(SCC(=O)Nc3nnc(C)s3)nn2)cc1`, the Potency was active: 12.6 µM.

`CCOC(=O)C1CCN(C(=O)COc2ccc(Cl)cc2C)CC1`: the activity change, positive = activation was -72.4%.

As for `CC1Sc2ccccc2N(CC(=O)N(C(C)C)C(C)C)C1=O` (stereo not drawn), the activity change, positive = activation amounted to 27.9%.

As for `Cc1ccc(N(CC(=O)N2CCN(c3cccc(C)c3C)CC2)S(=O)(=O)c2c(C)nn(C)c2C)cc1`, the “activity change, positive = activation” value was inactive: -49.8%.

With `Cn1cc(-c2nc3ccccc3[nH]2)c2ccccc21`, the Potency is active: 22.4 µM.

Consider `Cc1cc(C(=O)CSc2nc3ccccc3o2)c(C)n1CC1CCCO1` (stereo not drawn), for which the “activity change, positive = activation” value was inactive: -89%.

`CC1CCN(c2ccc(C(=O)Nc3ccc4c(c3)OCO4)cc2[N+](=O)[O-])CC1`: the activity change, positive = activation is -58.1% [at 1.84 µM].

With `CCOC(=O)N1CCN(C(=O)COc2cccc3c2CCN(Cc2cccc(C)c2)C3=O)CC1`, the “activity change, positive = activation” value was inactive: -40.1%.

On to `Cc1ccc(S(=O)(=O)N2CCC(C(=O)NCCc3ccccc3)CC2)cc1`, for which the activity change, positive = activation was -45.8%.

Regarding `CCN(CC)CC(=O)Nc1ccc(C)cc1Br`, the activity change, positive = activation is 40.4%.

For the compound `CNS(=O)(=O)c1cc(OC)ccc1OC`, the activity change, positive = activation was determined as 35.9%.

Turning to `O=C1CCC(=O)N1CC(=O)N1c2ccccc2Sc2ccccc21`, the activity change, positive = activation was found to be 21.3%.

In the case of `Cc1cccc(Nc2nc(-c3cccs3)cs2)n1`, the Potency is active: 1.41 µM.

For `O=C(Nc1ccc(S(=O)(=O)Nc2ccccc2)cc1)C1COc2ccccc2O1` (stereo not drawn), the activity change, positive = activation is -55.6%.

As for `O=C(N/N=C/c1ccc2c(c1)OCO2)c1cc(-c2ccncc2)nc2ccccc12`, the “activity change, positive = activation” value is inactive: -26.3%.

On to `Cc1ccc(CN=c2c([N+](=O)[O-])nn(-c3ccc4c(c3)OCCO4)n2O)cc1`, for which the activity change, positive = activation is -34.3%.

For `N#CCCN(CCC#N)C(=O)c1ccc2c(c1)OCO2`, the activity change, positive = activation was 28.5%.

`CCC12CN(C(=O)c3ccc(C)cc3)CC(CC)(CN(C(=O)c3ccc(C)cc3)C1)C2=O`: the activity change, positive = activation was 12.9%.

On to `CCCCNC(=O)CSc1nnc(-c2c[nH]c3ccccc23)n1CC1CCCO1` (stereo not drawn), for which the activity change, positive = activation came out at 48%.

With `COc1ccc(OC)c2sc(NC(=O)C3=COCCO3)nc12`, the “activity change, positive = activation” value was inactive: -49.4%.

For `COc1ccccc1Cn1cc(C(=O)c2ccc(Cl)cc2)c(=O)c2ccccc21`, the activity change, positive = activation amounted to 39.8%.
